# In the supplement of paper PMC4635364:
# Where a name gives a salt, the structure may show the parent alone. The list shows a part of the results. Repeats in this data set agree poorly, so a single value says little.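 Human fetal ventral-midbrain neural progenitor line ReNCell VM, differentiated without mitogens. Images stained for doublecortin (early neurons) or tyrosine hydroxylase (dopaminergic neurons) were scored by blinded raters against untreated wells (0 = no change). Repeats and both raters were averaged, and compounds averaging 2 or higher were picked as hits for retesting.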
# What was measured:
# ReNCell VM [1] = assay: neuronal differentiation score (DCX+ cell fraction vs untreated, manual image score) (score (-3 to 3)); higher = more neuronal differentiation; conditions: 2 uM, 2 weeks
# ReNCell VM [2] = assay: dopaminergic neuron differentiation score (TH+ cell fraction vs untreated, manual image score) (score (0 to 3)); higher = more TH+ dopaminergic neuron differentiation; conditions: 2 uM, 4 weeks, BDNF 10 ng/ml + GDNF 10 ng/ml
compound,measurement,setting,value
"CN1CC[C@@]2(C)c3cc(O)ccc3N(C)C12 (single isomer, unassigned; (-)) [(-)-Eseroline fumarate]",neuronal differentiation score,ReNCell VM [1]; library: LOPAC,inactive: 0
same,dopaminergic neuron differentiation score,ReNCell VM [2]; library: LOPAC,inactive: 0
"CN(C(=O)Cc1ccc(Cl)c(Cl)c1)C(CN1CCCC1)c1cccc(OCC(=O)O)c1 (stereo not given) [ICI 204,448 hydrochloride]",neuronal differentiation score,ReNCell VM [1]; library: LOPAC,inactive: 0
same,dopaminergic neuron differentiation score,ReNCell VM [2]; library: LOPAC,inactive: 0
C=C(C)CN1CC[C@@]23c4c5ccc(O)c4O[C@H]2c2[nH]c4ccccc4c2C[C@]3(O)C1C5 [SDM25N hydrochloride],neuronal differentiation score,ReNCell VM [1]; library: Tocriscreen,inactive: 0
same,dopaminergic neuron differentiation score,ReNCell VM [2]; library: Tocriscreen,inactive: 0
O=C1CCC[C@@H]2[C@H]3C[C@@H](CN12)[C@@H]1CCCCN1C3.[O-][Cl+3]([O-])([O-])O,neuronal differentiation score,ReNCell VM [1]; library: Spectrum,inactive: 0
same,dopaminergic neuron differentiation score,ReNCell VM [2]; library: Spectrum,inactive: 0
c1ccc2c(c1)Nc1ccccc1S2,neuronal differentiation score,ReNCell VM [1]; library: Spectrum,inactive: 0
same,dopaminergic neuron differentiation score,ReNCell VM [2]; library: Spectrum,inactive: 0
N#CC(C#N)=Cc1cc(O)c(O)c(O)c1 [Tyrphostin 25],neuronal differentiation score,ReNCell VM [1]; library: LOPAC,inactive: 0
same,dopaminergic neuron differentiation score,ReNCell VM [2]; library: LOPAC,inactive: 0
Cc1onc(O)c1C[C@H](N)C(=O)O,neuronal differentiation score,ReNCell VM [1]; library: Tocriscreen,inactive: 0
same,dopaminergic neuron differentiation score,ReNCell VM [2]; library: Tocriscreen,inactive: 0
COc1ccccc1N1CCNCC1,neuronal differentiation score,ReNCell VM [1]; library: Spectrum,inactive: 0
same,dopaminergic neuron differentiation score,ReNCell VM [2]; library: Spectrum,inactive: 0
CC(=O)[C@H]1CC[C@H]2[C@@H]3CC[C@H]4C[C@H](O)CC[C@]4(C)[C@H]3CC[C@]12C,neuronal differentiation score,ReNCell VM [1]; library: Spectrum,inactive: 0
same,dopaminergic neuron differentiation score,ReNCell VM [2]; library: Spectrum,inactive: 0
CCN1C[C@]2(COC)CC[C@H](O)[C@@]34C5C[C@@H]6[C@@H](OC)C[C@](O)(C(CC23)C14)C5[C@H]6OC(C)=O (stereo not given in full) [Condelphine],neuronal differentiation score,ReNCell VM [1]; library: Phytochemical,inactive: 0
same,dopaminergic neuron differentiation score,ReNCell VM [2]; library: Phytochemical,inactive: 0
CN1[C@@H]2CC[C@H]1C[C@@H](OC(=O)C(CO)c1ccccc1)C2 (stereo not given in full) [Atropine sulfate],neuronal differentiation score,ReNCell VM [1]; library: LOPAC,inactive: 0
same,dopaminergic neuron differentiation score,ReNCell VM [2]; library: LOPAC,inactive: 0
O[C@@H]1CCCC[C@H]1N1CCC(c2ccccc2)CC1 [L(-)-vesamicol hydrochloride],neuronal differentiation score,ReNCell VM [1]; library: Prestwick,inactive: 0
same,dopaminergic neuron differentiation score,ReNCell VM [2]; library: Prestwick,inactive: 0
CCC1(c2ccc(N)cc2)CCC(=O)NC1=O (stereo not given),neuronal differentiation score,ReNCell VM [1]; library: Spectrum,inactive: 0
same,dopaminergic neuron differentiation score,ReNCell VM [2]; library: Spectrum,inactive: 0
COc1cc2c(cc1-c1cc3cc4ccoc4cc3oc1=O)OCO2,neuronal differentiation score,ReNCell VM [1]; library: Spectrum,inactive: 0
same,dopaminergic neuron differentiation score,ReNCell VM [2]; library: Spectrum,active: 3
N[C@@H](Cc1ccc(N(CCCl)CCCl)cc1)C(=O)O [Melphalan],neuronal differentiation score,ReNCell VM [1]; library: LOPAC,inactive: 0
same,dopaminergic neuron differentiation score,ReNCell VM [2]; library: LOPAC,inactive: 0
C#C[C@]1(O)CC[C@H]2[C@@H]3CCC4=CC(=O)CCC4=C3C=C[C@@]21CC [Gestrinone],neuronal differentiation score,ReNCell VM [1]; library: Prestwick,inactive: 0
same,dopaminergic neuron differentiation score,ReNCell VM [2]; library: Prestwick,inactive: 0
Clc1ccc(N2C[C@H]3CC[C@@H](C2)N3)nn1,neuronal differentiation score,ReNCell VM [1]; library: LOPAC,inactive: 0
same,dopaminergic neuron differentiation score,ReNCell VM [2]; library: LOPAC,inactive: 0
CC(C)[N+](C)(CCC(C(N)=O)(c1ccccc1)c1ccccc1)C(C)C [Isopropamide iodide],neuronal differentiation score,ReNCell VM [1]; library: Prestwick,inactive: 0
same,dopaminergic neuron differentiation score,ReNCell VM [2]; library: Prestwick,inactive: 0
Clc1cnc(Oc2ccc(Oc3ncc(Cl)cc3Cl)cc2)c(Cl)c1,neuronal differentiation score,ReNCell VM [1]; library: LOPAC,inactive: 0
same,dopaminergic neuron differentiation score,ReNCell VM [2]; library: LOPAC,inactive: 0
C=CCc1ccc2c(c1)OCO2,neuronal differentiation score,ReNCell VM [1]; library: Spectrum,inactive: 0
same,dopaminergic neuron differentiation score,ReNCell VM [2]; library: Spectrum,inactive: 0
C[C@@H]1CC[C@H]2[C@@H](C)C(=O)O[C@@H]3O[C@@]4(C)CC[C@@H]1[C@]32OO4 [artemisinin],neuronal differentiation score,ReNCell VM [1]; library: Natural,inactive: 0
same,dopaminergic neuron differentiation score,ReNCell VM [2]; library: Natural,inactive: 0
CNCCc1ccc(O)c(O)c1 [N-Methyldopamine hydrochloride],neuronal differentiation score,ReNCell VM [1]; library: LOPAC,inactive: 0
same,dopaminergic neuron differentiation score,ReNCell VM [2]; library: LOPAC,inactive: 0
CN1C[C@H](C(=O)N[C@]2(C)O[C@@]3(O)[C@@H]4CCCN4C(=O)[C@H](Cc4ccccc4)N3C2=O)C[C@@H]2c3cccc4[nH]cc(c34)C[C@H]21 [Dihydroergotamine mesylate],neuronal differentiation score,ReNCell VM [1]; library: Tocriscreen,inactive: 0
same,dopaminergic neuron differentiation score,ReNCell VM [2]; library: Tocriscreen,inactive: 0
CC(CN)CC(=O)O (stereo not given) [3-Methyl-GABA],neuronal differentiation score,ReNCell VM [1]; library: Tocriscreen,inactive: 0
same,dopaminergic neuron differentiation score,ReNCell VM [2]; library: Tocriscreen,inactive: 0
O=C1CCC[C@@H]2[C@H]3CCCN4CCC[C@@H](CN12)[C@@H]34 [Matrine],neuronal differentiation score,ReNCell VM [1]; library: Phytochemical,inactive: 0
same,dopaminergic neuron differentiation score,ReNCell VM [2]; library: Phytochemical,inactive: 0
C[C@]12CC[C@H](O)C[C@@H]1CC[C@@H]1[C@@H]2CC[C@]2(C)C(=O)CC[C@@H]12 [Epiandrosterone],neuronal differentiation score,ReNCell VM [1]; library: Prestwick,inactive: 0
same,dopaminergic neuron differentiation score,ReNCell VM [2]; library: Prestwick,inactive: 0
CCC1(C2=NCCN2)Cc2ccccc2O1 (stereo not given),neuronal differentiation score,ReNCell VM [1]; library: Spectrum,inactive: 0
same,dopaminergic neuron differentiation score,ReNCell VM [2]; library: Spectrum,inactive: 0
Cc1ncc(CN2CC=C(c3ccccc3)CC2)c(N)n1,neuronal differentiation score,ReNCell VM [1]; library: Tocriscreen,inactive: 0
same,dopaminergic neuron differentiation score,ReNCell VM [2]; library: Tocriscreen,inactive: 0
"COc1ccc2[nH]c3c(c2c1)CCNC3 [6-Methoxy-1,2,3,4-tetrahydro-9H-pyrido[3,4b] indole]",neuronal differentiation score,ReNCell VM [1]; library: LOPAC,inactive: 1
same,dopaminergic neuron differentiation score,ReNCell VM [2]; library: LOPAC,inactive: 0
CCN[C@@H](C)Cc1cccc(C(F)(F)F)c1 [Dexfenfluramine hydrochloride],neuronal differentiation score,ReNCell VM [1]; library: Prestwick,inactive: 0
same,dopaminergic neuron differentiation score,ReNCell VM [2]; library: Prestwick,inactive: 0
CC[C@@H](CO)NC(=O)[C@@H]1C=C2c3cccc4c3c(cn4C)C[C@H]2N(C)C1,neuronal differentiation score,ReNCell VM [1]; library: Spectrum,inactive: 0
same,dopaminergic neuron differentiation score,ReNCell VM [2]; library: Spectrum,inactive: 0
O=c1oc2ccccc2c(O)c1C(c1ccccc1O)c1c(O)c2ccccc2oc1=O,neuronal differentiation score,ReNCell VM [1]; library: Natural,inactive: 0
same,dopaminergic neuron differentiation score,ReNCell VM [2]; library: Natural,inactive: 0
CC[C@@H](c1cccc(O)c1)[C@@H](C)CN(C)C,neuronal differentiation score,ReNCell VM [1]; library: Spectrum,inactive: 1
same,dopaminergic neuron differentiation score,ReNCell VM [2]; library: Spectrum,inactive: 0
"CC12NC(Cc3ccccc31)c1ccccc12 (single isomer, unassigned; (+)) [(+)-MK 801 maleate]",neuronal differentiation score,ReNCell VM [1]; library: Tocriscreen,inactive: 0
same,dopaminergic neuron differentiation score,ReNCell VM [2]; library: Tocriscreen,inactive: 0
O=[N+]([O-])O[C@@H]1CO[C@H]2[C@@H]1OC[C@@H]2O,neuronal differentiation score,ReNCell VM [1]; library: Spectrum,inactive: 0
same,dopaminergic neuron differentiation score,ReNCell VM [2]; library: Spectrum,inactive: 0

# Given with bars between the fields: part of the list above.
compound | measurement | setting | value
CN(C(=O)Cc1ccc(Cl)c(Cl)c1)C(CN1CCCC1)c1cccc(OCC(=O)O)c1 (stereo not given) [ICI 204,448 hydrochloride] | dopaminergic neuron differentiation score | ReNCell VM [2]; library: LOPAC | inactive: 0
Cc1onc(O)c1C[C@H](N)C(=O)O | dopaminergic neuron differentiation score | ReNCell VM [2]; library: Tocriscreen | inactive: 0
CCC1(c2ccc(N)cc2)CCC(=O)NC1=O (stereo not given) | dopaminergic neuron differentiation score | ReNCell VM [2]; library: Spectrum | inactive: 0
CC(C)[N+](C)(CCC(C(N)=O)(c1ccccc1)c1ccccc1)C(C)C [Isopropamide iodide] | dopaminergic neuron differentiation score | ReNCell VM [2]; library: Prestwick | inactive: 0
CCN[C@@H](C)Cc1cccc(C(F)(F)F)c1 [Dexfenfluramine hydrochloride] | dopaminergic neuron differentiation score | ReNCell VM [2]; library: Prestwick | inactive: 0
